Results on one substance are retold here after PMC8500965.

By UniProt entry, the sequences of proteins in these tests, tags left out.
UniProt O88597: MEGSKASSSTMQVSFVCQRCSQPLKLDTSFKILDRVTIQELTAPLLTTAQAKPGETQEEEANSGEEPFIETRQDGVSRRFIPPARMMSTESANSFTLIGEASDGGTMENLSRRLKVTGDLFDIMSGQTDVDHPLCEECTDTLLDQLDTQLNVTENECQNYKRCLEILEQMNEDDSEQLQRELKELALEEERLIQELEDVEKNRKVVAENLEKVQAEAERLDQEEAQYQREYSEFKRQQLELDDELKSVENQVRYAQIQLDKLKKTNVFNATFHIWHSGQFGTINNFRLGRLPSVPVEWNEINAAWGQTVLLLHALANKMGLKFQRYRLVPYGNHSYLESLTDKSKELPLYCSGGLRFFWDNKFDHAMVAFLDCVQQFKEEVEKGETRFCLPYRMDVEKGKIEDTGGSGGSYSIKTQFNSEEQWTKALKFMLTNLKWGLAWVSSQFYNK
UniProt Q9Z0Z3: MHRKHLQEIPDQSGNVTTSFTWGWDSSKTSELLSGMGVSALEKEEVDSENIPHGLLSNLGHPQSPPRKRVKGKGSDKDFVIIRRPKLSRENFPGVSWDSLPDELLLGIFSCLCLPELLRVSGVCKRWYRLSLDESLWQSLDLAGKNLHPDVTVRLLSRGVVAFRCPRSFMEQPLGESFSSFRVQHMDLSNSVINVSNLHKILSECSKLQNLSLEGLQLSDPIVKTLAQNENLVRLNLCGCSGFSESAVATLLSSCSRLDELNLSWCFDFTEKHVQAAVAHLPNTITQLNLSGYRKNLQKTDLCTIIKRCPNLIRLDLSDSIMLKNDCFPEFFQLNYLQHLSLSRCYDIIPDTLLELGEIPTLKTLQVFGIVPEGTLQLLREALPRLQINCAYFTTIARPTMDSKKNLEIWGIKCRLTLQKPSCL

These are yes or no findings as the source states them, for the method shown. Binding seen in cells or lysates may run through a third protein. Some binding calls cover weakened binding; strength is not graded here.

The target of this test is Beclin1 (mouse (endogenous in MH-S)) (UniProt O88597). Nature of the test: co-IP; myc-SKP2 overexpressed in MH-S cells; RIPA lysate pre-cleared with Protein A + G Agarose; IP with Beclin1 antibody or isotype-matched IgG at 4°C overnight; Western blot for Beclin1 and myc-SKP2.

Turning to “myc-SKP2 (S-phase kinase-associated protein 2) (from UniProt Q9Z0Z3 1-424)”, the binding entry is listed as “binds”.
